Source: the M2OR odorant receptor database
Only a part is listed here, and it is no random draw. The calls were merged from several studies; some rest on single wells. The list shows a part of the results.

Assays:
Details in all cases: stereoisomer not certain
UniProt Q8VGT4 = target: T1, UniProt Q8VGT4
T1 sequence (whole entry): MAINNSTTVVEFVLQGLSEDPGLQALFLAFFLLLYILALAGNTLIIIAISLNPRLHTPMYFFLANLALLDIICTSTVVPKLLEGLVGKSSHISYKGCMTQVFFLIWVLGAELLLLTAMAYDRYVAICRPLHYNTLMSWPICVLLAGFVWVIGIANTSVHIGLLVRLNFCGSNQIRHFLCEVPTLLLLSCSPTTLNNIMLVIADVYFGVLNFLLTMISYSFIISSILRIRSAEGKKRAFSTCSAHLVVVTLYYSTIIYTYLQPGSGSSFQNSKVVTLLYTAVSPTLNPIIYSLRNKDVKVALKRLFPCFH
Procedure, shortened: (§1)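 Each receptor–molecule pair is labelled responsive or non-responsive (inactive) according to whether the original authors judged the measured signal statistically different from baseline. The data were taken from the main text and supplementary material of published papers and checked for typos and inconsistencies. Assay methods differed by source, with transient luciferase assays in mammalian cell lines being common.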

UniProt Q8VGU3 = target: T2, UniProt Q8VGU3
T2 sequence (whole entry): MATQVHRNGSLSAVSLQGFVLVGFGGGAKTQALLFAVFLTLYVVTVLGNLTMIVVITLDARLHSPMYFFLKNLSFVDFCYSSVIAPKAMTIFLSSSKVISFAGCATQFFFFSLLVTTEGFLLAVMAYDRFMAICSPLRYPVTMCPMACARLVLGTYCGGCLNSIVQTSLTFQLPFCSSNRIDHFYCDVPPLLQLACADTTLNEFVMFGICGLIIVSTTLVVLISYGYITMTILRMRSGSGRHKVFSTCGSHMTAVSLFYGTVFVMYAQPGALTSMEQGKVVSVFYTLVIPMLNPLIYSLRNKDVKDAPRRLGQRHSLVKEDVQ
Procedure, shortened: as §1

UniProt Q8VGV1 = target: T3, UniProt Q8VGV1
T3 sequence (whole entry): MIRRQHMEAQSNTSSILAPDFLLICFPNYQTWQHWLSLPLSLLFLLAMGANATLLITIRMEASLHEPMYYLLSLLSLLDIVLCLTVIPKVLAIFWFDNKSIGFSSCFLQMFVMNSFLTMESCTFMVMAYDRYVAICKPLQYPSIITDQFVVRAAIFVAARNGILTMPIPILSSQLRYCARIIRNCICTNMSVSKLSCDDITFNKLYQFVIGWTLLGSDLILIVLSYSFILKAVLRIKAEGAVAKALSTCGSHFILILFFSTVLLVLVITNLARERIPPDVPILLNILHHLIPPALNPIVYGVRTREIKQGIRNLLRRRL
Procedure, shortened: as §1

UniProt Q8VGV7 = target: T4, UniProt Q8VGV7
T4 sequence (whole entry): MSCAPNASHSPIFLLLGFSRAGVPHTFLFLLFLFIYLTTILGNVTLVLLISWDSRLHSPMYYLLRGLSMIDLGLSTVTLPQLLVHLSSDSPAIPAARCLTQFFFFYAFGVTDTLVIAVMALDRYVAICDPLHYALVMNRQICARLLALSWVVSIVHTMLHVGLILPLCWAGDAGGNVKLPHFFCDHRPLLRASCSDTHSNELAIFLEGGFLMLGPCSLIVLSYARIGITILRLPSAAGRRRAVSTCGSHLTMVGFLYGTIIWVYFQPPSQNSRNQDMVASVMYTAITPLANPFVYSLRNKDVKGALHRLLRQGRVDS
Procedure, shortened: as §1

UniProt Q8VGW5 = target: T5, UniProt Q8VGW5
T5 sequence (whole entry): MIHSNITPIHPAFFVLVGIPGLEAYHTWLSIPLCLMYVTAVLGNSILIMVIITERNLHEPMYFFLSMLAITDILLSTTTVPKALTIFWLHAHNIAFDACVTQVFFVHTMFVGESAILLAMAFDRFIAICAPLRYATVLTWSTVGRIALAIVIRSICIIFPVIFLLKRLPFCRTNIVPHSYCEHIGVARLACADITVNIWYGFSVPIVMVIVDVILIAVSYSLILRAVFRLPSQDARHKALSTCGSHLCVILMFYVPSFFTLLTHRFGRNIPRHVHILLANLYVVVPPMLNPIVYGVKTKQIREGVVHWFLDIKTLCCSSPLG
Procedure, shortened: as §1

UniProt Q8VGX3 = target: T6, UniProt Q8VGX3
T6 sequence (whole entry): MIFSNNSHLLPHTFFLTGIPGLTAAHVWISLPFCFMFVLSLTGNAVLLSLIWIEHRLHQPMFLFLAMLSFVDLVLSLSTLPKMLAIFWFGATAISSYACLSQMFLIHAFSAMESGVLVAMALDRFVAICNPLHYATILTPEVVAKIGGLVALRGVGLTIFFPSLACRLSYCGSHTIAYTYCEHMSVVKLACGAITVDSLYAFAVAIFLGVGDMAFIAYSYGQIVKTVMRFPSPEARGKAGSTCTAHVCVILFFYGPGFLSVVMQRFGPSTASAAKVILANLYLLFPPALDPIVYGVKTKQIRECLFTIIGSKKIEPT
Procedure, shortened: as §1

UniProt Q8VGX5 = target: T7, UniProt Q8VGX5
T7 sequence (whole entry): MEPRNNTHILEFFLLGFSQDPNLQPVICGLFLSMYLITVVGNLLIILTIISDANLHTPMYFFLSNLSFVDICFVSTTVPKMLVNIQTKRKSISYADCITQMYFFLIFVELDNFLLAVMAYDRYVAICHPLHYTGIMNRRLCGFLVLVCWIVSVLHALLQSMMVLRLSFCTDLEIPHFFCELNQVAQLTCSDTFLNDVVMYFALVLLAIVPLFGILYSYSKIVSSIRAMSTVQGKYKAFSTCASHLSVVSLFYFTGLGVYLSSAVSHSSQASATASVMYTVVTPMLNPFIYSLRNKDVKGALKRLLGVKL
Procedure, shortened: as §1

UniProt Q8VGX8 = target: T8, UniProt Q8VGX8
T8 sequence (whole entry): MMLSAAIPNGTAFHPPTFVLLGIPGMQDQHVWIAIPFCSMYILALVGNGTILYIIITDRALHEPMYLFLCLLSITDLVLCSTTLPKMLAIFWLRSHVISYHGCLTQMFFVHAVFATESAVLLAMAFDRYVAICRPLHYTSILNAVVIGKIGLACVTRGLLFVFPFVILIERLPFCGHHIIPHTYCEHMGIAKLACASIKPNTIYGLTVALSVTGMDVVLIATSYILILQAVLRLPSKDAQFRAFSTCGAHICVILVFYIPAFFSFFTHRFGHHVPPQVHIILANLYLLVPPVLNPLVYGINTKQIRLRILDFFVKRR
Procedure, shortened: as §1

UniProt Q8VGY6 = target: T9, UniProt Q8VGY6
T9 sequence (whole entry): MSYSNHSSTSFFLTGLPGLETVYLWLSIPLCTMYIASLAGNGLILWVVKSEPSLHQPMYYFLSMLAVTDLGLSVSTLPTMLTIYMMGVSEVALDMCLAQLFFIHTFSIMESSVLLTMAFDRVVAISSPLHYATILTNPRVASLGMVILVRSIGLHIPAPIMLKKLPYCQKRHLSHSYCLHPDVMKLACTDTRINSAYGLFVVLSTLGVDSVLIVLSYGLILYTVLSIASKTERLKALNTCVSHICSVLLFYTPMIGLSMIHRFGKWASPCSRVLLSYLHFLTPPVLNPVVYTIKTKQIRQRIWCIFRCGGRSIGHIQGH
Procedure, shortened: as §1

UniProt Q8VGZ2 = target: T10, UniProt Q8VGZ2
T10 sequence (whole entry): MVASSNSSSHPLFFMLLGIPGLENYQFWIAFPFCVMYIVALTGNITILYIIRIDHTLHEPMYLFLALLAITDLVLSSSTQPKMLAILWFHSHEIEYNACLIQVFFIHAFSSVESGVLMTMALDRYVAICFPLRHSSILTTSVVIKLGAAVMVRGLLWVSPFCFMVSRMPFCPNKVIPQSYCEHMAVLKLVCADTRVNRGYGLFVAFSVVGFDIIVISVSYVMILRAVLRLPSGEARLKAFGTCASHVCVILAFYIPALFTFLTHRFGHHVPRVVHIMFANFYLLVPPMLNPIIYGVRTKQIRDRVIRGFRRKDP
Procedure, shortened: as §1

UniProt Q8VGZ7 = target: T11, UniProt Q8VGZ7
T11 sequence (whole entry): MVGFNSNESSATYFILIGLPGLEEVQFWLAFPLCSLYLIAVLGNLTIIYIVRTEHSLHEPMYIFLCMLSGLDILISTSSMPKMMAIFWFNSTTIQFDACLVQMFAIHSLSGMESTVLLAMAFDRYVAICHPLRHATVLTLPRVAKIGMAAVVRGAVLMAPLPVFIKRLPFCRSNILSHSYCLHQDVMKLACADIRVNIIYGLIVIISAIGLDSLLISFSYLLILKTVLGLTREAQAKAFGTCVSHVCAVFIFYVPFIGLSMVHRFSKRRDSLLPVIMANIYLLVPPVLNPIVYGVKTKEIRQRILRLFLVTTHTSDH
Procedure, shortened: as §1

UniProt Q8VH10 = target: T12, UniProt Q8VH10
T12 sequence (whole entry): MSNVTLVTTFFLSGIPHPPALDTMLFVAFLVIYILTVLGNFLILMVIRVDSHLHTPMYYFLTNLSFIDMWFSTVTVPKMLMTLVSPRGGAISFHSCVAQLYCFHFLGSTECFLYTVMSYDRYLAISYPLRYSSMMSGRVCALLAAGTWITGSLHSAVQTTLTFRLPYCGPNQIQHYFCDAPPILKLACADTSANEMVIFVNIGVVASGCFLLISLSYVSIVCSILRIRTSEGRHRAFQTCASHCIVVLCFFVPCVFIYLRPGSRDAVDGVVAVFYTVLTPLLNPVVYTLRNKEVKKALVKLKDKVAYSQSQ
Procedure, shortened: as §1

UniProt Q8VH16 = target: T13, UniProt Q8VH16
T13 sequence (whole entry): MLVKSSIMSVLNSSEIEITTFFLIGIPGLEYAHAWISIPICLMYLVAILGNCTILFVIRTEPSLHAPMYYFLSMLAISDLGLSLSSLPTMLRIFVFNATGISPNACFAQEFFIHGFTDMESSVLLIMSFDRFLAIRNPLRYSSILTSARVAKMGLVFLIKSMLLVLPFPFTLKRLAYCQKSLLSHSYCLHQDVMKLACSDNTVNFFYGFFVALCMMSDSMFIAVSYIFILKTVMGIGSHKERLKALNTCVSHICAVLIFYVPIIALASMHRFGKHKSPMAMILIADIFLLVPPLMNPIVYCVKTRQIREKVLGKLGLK
Procedure, shortened: as §1

UniProt Q8VH18 = target: T14, UniProt Q8VH18
T14 sequence (whole entry): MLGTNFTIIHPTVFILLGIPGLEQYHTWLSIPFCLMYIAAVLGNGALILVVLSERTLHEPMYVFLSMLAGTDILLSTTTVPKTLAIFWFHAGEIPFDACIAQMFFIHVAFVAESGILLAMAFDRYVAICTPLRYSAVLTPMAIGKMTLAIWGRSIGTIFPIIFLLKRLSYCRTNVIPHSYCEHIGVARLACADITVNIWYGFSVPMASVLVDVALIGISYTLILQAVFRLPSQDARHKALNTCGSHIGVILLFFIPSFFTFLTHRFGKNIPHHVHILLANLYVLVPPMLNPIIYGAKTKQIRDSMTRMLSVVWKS
Procedure, shortened: as §1

UniProt Q8VH20 = target: T15, UniProt Q8VH20
T15 sequence (whole entry): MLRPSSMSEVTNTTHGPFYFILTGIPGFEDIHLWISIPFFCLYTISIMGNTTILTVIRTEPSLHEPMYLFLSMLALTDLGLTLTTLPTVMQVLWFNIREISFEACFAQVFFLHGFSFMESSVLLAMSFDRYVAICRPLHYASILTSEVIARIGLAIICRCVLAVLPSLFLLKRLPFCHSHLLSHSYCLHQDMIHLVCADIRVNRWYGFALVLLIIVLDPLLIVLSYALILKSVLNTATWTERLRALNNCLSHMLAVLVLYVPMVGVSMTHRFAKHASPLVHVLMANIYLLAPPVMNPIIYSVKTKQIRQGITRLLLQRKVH
Procedure, shortened: as §1

UniProt Q8VH21 = target: T16, UniProt Q8VH21
T16 sequence (whole entry): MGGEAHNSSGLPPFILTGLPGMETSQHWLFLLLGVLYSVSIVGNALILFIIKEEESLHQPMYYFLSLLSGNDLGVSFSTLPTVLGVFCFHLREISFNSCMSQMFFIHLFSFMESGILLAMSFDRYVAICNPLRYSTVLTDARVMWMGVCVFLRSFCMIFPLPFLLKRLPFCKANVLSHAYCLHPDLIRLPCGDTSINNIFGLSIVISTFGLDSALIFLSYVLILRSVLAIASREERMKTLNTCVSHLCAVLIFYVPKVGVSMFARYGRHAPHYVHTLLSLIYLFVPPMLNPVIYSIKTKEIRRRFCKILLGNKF
Procedure, shortened: as §1

UniProt Q924H8 = target: T17, UniProt Q924H8
T17 sequence (whole entry): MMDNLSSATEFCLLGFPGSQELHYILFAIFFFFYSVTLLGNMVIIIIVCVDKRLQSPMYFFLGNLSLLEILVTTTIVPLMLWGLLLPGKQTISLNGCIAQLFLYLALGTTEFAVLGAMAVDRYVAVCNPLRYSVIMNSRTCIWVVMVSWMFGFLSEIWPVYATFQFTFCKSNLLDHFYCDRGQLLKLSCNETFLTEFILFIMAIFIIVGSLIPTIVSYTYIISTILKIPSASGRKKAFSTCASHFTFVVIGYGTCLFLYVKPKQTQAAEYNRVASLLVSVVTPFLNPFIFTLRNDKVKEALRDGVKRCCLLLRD
Procedure, shortened: as §1

Measured: odorant receptor agonist call

CCCCCCCCC=O
active: UniProt Q8VGV1 | UniProt Q8VGX8 | UniProt Q8VGZ2
inactive: UniProt Q8VGT4 | UniProt Q8VGU3 | UniProt Q8VGV7 | UniProt Q8VGW5 | UniProt Q8VGX3 | UniProt Q8VGX5 | UniProt Q8VGY6 | UniProt Q8VGZ7 | UniProt Q8VH10 | UniProt Q8VH16 | UniProt Q8VH18 | UniProt Q8VH20 | UniProt Q8VH21 | UniProt Q924H8
